{
  "sequences": {"note": "By UniProt entry, the sequences of proteins in these tests, tags left out.", "UniProt Q9GZX7, whole entry": "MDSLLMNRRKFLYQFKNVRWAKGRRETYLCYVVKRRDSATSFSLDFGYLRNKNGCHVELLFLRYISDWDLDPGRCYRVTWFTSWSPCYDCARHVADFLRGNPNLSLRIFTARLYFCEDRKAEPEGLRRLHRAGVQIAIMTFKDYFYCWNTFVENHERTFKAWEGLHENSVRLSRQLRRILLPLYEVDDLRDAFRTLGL"},
  "source": "PubChem BioAssay AID1347428",
  "about": "(National Center for Advancing Translational Sciences (NCATS), 2020)",
  "note": "In all, about 91,000 compounds went through this assay and about 290 (0.32%) were called active. Listed are the inconclusive results; actives and inactives stand elsewhere. Calls follow the shape of the dose curve; as a rule, active = well fitted inhibition curve with a large enough effect; inconclusive = small, poorly fitted or top-dose-only effect; inactive = no such curve, though single readings can be large or run the other way. Some results for these compounds are left out of this collection, so the calls shown say nothing about other tests.",
  "data": [
    {"target": "Single-stranded DNA cytosine deaminase (Homo sapiens) (UniProt Q9GZX7)", "experiment": "Primary qHTS assay for inhibitors of Activation Induced Cytidine Deaminase (AID): AID signal; also: potency is read from the fitted curve at half-maximal effect; nearly all actives have a fitted effect of over 25% in size", "conditions": "AID deamination FRET fluorescence, UDG-coupled, 4 h", "excerpt": "Assay Provider (PI) Patricia Gearhart Ph.D.\nNational Institute on Aging\nNational Institute of Health (NIH), Bethesda, MD\nAssay Provider (PI) Rahul Kohli Ph.D.\nPerelman School of Medicine\nUniversity of Pennsylvania, Philadelphia, PA\nActivation-Induced Deaminase (AID) is a cytosine deaminase which converts cytosine into uracil within stretches of ssDNA. The presence of uracil in DNA initiates a cascade of mutagenic DNA repair to introduce point mutations and DNA double strand breaks. Specific targeting of AID to the immunoglobulin heavy chain loci (Igh) promotes mutagenesis in the antibody variable region for somatic hypermutation (SHM) or switch regions leading to class switch recombination (CSR). […]\nA FRET based analysis of cytosine deamination, was developed to identify potential inhibitors of AID catalytic activity. This screen has two signal output, Read 1 evaluates the AID inhibition response. The second readout (Read 2) evaluates UDG response and is uses as a counterscreen to exclude false positive inhibitors. […]\n9a; Detection; fluorescence (Read 1: AID); EnVision (PerkinElmer) plate reader, 540 excitation and 590 emission filters\n9b; Detection; fluorescence (Read 2: UDG); EnVision (PerkinElmer) plate reader, 560 excitation and 665 emission filters […]\n9a; Fluorescence signal (column label AID) was read using the EnVision plate reader. […]", "values": [
      {"compound": "CC(CCN(CCCl)CCCl)c1ccccc1", "note": "(stereo unspecified)", "Potency": "inconclusive: 56.2 µM"}
    ]}
  ]
}
